Experimental data reported in patent publication US11472844B2 (priority 2017, dated 2022).
Some peptides are written in HELM: one residue between dots, names in brackets for other building blocks, links after the first $.

Test: general procedure: Fmoc solid-phase peptide synthesis
Conditions: whole synthesis

**Q.** Which difficulty met does the source give for “PEPTIDE1{[ac].[dC].[dF].[dI].[dV].[dT].[dY].[dF].[dQ].[dD].[dN].[dT].[dD].[dD].[dN].[dD].[dF].[dK].[dE].G.[dA].[dP].[dF].[dN].[dD].[dK].[dF].[dL].[dE].[dY].G.[dD].G.[dE].[dF].[dK].[dK].[dI].G.[dE].[dA].[dT].[am]}$$$$V2.0” here?
**A.** major side-product corresponding to the Asp-Gly deletion peptide, suggesting a poor Hmb dipeptide coupling yield

**Q.** And the isolated yield (overall isolated yield)?
**A.** 9%
